Our source for the binding values is paper PMC6856136, “Topological DNA-binding of structural maintenance of chromosomes-like RecN promotes DNA double-strand break repair in Escherichia coli” (Communications Biology, 2019).

Sequences of proteins named here, by UniProt entry; tags and fusion partners are left off.
UniProt P0A7G6: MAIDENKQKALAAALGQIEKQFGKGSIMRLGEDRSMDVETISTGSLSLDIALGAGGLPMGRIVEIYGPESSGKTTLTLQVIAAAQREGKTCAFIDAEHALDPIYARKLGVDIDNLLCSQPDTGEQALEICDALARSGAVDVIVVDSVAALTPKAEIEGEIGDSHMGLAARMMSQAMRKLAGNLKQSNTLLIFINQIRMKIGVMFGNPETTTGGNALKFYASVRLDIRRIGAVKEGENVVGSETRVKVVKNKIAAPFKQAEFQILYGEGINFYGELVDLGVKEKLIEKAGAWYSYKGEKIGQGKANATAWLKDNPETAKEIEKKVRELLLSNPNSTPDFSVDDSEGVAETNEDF

Results are given in words; binding and its absence hold for the method and conditions named. Some binding calls cover weakened binding; strength is not graded here. Where a sequence is shown, tags or fusion partners need not be part of it.

In the experiment the target is T1, N-terminally hexahistidine-fused RecN (His-RecN), Escherichia coli (E. coli) (UniProt P05824).
T1 sequence: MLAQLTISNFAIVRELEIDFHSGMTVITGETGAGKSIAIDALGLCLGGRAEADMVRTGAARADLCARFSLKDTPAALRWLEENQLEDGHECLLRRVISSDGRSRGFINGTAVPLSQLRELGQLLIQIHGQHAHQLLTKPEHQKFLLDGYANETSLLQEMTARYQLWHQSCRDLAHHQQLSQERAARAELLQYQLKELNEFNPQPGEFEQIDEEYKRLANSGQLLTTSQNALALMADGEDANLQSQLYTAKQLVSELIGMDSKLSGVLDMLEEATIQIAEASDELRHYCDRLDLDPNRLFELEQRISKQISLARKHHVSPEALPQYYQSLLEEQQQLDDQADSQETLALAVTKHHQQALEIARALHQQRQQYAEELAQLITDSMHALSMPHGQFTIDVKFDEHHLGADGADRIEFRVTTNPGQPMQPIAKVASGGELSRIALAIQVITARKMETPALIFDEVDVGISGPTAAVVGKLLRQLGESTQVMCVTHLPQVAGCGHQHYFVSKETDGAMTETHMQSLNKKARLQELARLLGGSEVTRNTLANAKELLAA
The experiment can be described thus: pull-down; His-RecN (1 uM) and RecA (1 uM) incubated at 37 °C for 10 min in buffer D (20 mM Tris-HCl pH 7.5, 0.01% NP-40, 7 mM 2-mercaptoethanol) with 50 mM KCl, 2 mM MgCl2, 5% glycerol, 2 mM ATP; captured on Co2+-conjugated magnetic beads with 10 mM imidazole at 4 °C for 15 min; washed with 100 mM KCl, 20 mM imidazole; SDS-PAGE and CBB staining; both purified.

Take “E. coli RecA (from UniProt P0A7G6 1-353)”: the binding result was “binds weakly”.
